Our source for the NP40-soluble protein abundance values is the supplement of paper PMC6411743.

The chains behind the UniProt entries cited, without tags or fusion partners. Where a name states a change or a piece, a line headed by the entry shows the natural chain unless it says otherwise.
UniProt Q13868, whole entry: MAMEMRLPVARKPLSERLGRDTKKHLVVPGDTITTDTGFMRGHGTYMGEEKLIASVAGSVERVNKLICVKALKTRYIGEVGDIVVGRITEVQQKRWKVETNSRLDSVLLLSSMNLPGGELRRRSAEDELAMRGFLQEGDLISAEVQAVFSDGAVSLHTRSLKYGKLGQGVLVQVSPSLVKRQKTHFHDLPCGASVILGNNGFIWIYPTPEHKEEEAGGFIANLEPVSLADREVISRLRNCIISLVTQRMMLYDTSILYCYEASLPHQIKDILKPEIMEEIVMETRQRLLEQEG
UniProt Q08J23, whole entry: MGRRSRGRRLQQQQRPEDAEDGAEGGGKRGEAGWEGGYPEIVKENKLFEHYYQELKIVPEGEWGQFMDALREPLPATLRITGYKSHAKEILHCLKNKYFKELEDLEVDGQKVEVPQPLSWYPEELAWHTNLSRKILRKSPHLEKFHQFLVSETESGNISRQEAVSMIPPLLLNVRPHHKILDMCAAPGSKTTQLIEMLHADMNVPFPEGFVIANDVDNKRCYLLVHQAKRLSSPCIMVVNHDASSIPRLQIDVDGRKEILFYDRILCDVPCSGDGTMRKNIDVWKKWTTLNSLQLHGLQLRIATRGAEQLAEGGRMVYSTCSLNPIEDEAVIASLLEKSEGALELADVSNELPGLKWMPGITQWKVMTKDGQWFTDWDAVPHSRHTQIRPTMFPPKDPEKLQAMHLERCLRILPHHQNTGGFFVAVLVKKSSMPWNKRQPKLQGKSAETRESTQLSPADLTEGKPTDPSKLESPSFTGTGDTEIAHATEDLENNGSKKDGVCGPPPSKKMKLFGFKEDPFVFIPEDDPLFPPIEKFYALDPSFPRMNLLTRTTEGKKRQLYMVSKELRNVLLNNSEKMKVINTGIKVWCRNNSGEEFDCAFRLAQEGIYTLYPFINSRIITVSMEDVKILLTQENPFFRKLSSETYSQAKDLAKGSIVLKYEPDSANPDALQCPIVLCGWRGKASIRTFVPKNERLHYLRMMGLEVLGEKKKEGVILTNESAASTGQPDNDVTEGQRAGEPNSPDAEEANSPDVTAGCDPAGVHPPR
UniProt Q13951, whole entry: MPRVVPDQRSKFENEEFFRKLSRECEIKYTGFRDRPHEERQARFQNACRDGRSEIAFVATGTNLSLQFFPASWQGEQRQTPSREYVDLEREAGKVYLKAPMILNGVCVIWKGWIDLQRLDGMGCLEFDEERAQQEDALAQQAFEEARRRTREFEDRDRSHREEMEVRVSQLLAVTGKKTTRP
UniProt Q13045: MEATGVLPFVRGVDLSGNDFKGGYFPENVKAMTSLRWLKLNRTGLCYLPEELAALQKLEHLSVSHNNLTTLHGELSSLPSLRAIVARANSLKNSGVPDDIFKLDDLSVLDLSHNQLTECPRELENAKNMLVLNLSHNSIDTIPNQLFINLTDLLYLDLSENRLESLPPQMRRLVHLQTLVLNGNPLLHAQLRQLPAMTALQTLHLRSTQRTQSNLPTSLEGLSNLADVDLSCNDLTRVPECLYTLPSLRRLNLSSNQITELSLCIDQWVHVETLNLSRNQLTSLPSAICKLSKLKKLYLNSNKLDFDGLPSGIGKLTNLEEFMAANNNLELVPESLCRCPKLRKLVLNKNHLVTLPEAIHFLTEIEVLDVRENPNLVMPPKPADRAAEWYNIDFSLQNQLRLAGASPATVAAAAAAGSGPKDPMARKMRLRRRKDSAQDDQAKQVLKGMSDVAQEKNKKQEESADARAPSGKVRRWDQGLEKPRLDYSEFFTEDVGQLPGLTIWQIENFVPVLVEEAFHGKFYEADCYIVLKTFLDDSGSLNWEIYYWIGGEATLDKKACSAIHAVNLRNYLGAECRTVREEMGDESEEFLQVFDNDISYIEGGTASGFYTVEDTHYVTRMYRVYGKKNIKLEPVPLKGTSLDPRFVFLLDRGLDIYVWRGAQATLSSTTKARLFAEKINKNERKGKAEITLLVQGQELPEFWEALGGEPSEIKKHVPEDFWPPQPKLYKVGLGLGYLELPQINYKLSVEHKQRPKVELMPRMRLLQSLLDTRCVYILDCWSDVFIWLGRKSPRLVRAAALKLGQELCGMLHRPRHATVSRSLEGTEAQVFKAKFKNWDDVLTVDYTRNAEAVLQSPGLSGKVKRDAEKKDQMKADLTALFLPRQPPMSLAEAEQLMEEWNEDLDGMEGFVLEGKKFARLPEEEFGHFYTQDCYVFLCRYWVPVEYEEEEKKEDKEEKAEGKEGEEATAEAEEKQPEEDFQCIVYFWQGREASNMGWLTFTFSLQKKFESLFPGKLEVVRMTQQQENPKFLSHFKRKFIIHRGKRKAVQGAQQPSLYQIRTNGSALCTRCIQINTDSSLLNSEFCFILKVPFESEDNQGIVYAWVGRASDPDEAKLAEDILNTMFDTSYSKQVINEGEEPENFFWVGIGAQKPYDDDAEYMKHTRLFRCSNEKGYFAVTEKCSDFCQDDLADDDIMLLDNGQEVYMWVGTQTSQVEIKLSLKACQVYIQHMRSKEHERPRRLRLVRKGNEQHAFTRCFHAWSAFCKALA
UniProt Q12893: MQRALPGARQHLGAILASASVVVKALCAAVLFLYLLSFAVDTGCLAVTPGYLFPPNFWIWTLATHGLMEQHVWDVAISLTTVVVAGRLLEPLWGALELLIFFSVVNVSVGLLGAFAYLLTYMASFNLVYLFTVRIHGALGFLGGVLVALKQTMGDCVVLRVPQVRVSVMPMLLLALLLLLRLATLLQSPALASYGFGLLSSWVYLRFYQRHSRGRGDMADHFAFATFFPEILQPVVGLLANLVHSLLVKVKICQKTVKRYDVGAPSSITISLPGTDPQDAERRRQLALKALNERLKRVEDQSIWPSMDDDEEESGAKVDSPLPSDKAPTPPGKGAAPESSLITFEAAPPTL
UniProt Q13884: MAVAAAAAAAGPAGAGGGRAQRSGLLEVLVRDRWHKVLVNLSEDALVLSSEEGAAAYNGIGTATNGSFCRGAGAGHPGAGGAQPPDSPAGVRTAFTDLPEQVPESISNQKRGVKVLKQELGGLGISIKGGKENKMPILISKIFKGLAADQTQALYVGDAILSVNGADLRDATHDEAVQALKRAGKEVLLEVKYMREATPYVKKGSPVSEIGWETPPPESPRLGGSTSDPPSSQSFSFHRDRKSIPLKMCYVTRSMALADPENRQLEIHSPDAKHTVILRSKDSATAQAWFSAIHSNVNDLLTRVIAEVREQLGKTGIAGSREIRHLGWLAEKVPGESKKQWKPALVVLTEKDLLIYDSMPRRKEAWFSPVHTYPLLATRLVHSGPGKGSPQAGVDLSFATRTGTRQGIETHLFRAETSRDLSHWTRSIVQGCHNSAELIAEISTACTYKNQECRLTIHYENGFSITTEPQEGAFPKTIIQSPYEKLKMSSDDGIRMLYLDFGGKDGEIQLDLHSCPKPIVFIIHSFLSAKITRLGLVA
UniProt Q13867: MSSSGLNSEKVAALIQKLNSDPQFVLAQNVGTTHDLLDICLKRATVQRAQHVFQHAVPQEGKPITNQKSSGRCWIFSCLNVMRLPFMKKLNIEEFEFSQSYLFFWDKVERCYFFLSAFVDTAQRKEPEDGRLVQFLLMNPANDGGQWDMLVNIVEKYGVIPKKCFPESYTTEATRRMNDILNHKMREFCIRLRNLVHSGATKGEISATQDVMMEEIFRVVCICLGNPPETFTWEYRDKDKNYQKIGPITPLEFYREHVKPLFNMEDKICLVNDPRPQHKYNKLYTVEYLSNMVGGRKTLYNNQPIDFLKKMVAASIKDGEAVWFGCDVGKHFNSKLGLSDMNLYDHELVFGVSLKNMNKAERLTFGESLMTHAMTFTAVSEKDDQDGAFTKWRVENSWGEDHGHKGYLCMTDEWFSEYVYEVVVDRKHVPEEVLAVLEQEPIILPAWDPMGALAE
UniProt Q13442: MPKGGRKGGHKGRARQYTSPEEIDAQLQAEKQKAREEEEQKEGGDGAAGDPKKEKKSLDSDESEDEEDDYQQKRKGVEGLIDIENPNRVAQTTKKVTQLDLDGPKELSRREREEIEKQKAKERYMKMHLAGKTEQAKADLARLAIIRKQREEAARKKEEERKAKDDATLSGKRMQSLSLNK
UniProt Q15046, whole entry, looked up: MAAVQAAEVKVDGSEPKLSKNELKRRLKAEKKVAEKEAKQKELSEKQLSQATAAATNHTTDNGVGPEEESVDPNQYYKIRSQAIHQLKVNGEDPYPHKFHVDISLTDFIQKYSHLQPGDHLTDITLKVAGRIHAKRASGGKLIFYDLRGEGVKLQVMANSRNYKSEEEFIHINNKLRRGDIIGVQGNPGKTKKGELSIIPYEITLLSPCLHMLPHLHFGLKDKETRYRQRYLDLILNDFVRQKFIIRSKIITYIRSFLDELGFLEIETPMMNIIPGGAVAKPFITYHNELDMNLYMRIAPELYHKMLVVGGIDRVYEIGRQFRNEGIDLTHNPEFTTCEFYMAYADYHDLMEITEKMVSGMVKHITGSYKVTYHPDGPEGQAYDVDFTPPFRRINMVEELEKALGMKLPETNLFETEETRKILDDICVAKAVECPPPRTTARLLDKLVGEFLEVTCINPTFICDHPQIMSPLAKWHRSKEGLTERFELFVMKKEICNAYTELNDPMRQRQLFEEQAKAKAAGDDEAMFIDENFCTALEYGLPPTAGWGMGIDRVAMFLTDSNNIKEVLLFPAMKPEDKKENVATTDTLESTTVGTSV
UniProt Q13895: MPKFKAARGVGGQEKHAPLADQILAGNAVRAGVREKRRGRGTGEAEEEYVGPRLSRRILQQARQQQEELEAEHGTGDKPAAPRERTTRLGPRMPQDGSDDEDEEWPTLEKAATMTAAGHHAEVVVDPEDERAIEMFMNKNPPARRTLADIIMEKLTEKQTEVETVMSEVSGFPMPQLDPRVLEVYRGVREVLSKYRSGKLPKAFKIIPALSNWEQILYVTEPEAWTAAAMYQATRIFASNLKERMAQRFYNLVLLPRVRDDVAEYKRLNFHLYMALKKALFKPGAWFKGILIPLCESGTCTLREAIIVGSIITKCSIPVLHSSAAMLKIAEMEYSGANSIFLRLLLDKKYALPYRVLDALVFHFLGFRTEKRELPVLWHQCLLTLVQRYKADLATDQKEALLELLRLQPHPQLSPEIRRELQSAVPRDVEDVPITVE
UniProt Q13310, whole entry: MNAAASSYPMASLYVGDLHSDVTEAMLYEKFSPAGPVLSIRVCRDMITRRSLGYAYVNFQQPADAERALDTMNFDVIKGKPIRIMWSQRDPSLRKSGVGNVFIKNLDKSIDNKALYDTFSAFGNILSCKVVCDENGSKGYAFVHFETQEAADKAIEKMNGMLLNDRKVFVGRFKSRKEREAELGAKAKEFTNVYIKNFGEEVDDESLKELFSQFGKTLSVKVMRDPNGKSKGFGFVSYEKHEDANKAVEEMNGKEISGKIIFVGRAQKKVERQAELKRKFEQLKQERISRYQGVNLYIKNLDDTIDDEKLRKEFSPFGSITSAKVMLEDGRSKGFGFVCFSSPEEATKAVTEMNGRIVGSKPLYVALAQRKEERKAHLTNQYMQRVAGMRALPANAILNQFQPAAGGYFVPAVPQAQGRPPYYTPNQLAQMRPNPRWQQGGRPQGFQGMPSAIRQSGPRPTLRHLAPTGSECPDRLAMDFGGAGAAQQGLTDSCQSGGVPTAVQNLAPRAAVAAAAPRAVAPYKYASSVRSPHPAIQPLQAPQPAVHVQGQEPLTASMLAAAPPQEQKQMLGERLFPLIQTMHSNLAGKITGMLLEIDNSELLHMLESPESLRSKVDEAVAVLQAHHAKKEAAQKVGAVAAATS
UniProt Q13206, whole entry: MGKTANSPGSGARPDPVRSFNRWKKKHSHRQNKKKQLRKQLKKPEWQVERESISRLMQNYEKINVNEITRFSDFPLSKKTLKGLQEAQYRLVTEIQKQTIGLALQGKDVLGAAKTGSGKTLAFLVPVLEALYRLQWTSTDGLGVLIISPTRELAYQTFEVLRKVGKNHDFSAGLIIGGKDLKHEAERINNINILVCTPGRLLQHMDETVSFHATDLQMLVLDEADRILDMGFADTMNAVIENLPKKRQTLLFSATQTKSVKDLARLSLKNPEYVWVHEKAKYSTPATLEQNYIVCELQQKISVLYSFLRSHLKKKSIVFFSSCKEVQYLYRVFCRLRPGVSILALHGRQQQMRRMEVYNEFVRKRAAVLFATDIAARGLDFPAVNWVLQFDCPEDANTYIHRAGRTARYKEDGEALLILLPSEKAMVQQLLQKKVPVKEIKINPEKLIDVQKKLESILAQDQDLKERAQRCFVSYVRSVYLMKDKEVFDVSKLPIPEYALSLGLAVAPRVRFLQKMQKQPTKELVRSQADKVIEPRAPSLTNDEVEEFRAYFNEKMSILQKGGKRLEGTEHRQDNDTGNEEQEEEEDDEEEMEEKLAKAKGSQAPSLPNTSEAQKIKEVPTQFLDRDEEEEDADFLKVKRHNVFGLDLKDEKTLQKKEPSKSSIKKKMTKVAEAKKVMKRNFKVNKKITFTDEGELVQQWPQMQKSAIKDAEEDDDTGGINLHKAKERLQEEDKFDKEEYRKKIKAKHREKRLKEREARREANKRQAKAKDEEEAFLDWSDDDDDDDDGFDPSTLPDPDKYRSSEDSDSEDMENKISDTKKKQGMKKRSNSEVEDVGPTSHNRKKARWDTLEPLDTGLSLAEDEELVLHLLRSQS

± gives the standard deviation of the averaged measurements. Only a part is listed here, and it is no random draw.

Compound in one test: Nc1ncnc2c1ncn2[C@@H]1O[C@H](COP(=O)(O)OP(=O)(O)NP(=O)(O)O)[C@@H](O)[C@H]1O [adenylyl imidodiphosphate]
Description: NP40-soluble protein abundance relative to vehicle (solubility fold change) (ratio); higher = more soluble protein in presence of AMP-PNP. The note with it: concentration: 1mM. In short, it runs like this: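 Jurkat crude lysate (Dounce-homogenised) was treated with eight concentrations from 0.1 to 10 mM for 10 min at room temperature, then 3 min at 37 °C. It was solubilised with 0.8% NP40 and benzonase (60 min, 4 °C) and ultracentrifuged, and the supernatant was TMT-labelled for LC-MS/MS. Intensities were vsn-normalised, and the value is the fold change against the NP40-processed vehicle per replicate, from three independent experiments.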
Take UniProt Q13164: the NP40-soluble protein abundance turned out to be 1.03 ± 0.018.

As to MAD2L1 (UniProt Q13257), the NP40-soluble protein abundance was 0.956 ± 0.068.

For the target PIN1 (UniProt Q13526), the NP40-soluble protein abundance amounted to 1.03 ± 0.013.

As for NNT (UniProt Q13423), the NP40-soluble protein abundance is 0.989 ± 0.012.

Take EXOSC2 (UniProt Q13868): the NP40-soluble protein abundance was determined as 1.01 ± 0.032.

Turning to GINS1 (UniProt Q14691), the NP40-soluble protein abundance was found to be 0.999 ± 0.025.

Take UniProt Q08J23 and related entries: the NP40-soluble protein abundance was 1.01 ± 0.011.

As to UniProt Q13951 and related entries, the NP40-soluble protein abundance came out at 1.04 ± 0.027.

For the target UniProt Q13303 and related entries, the NP40-soluble protein abundance turned out to be 0.956 ± 0.037.

On to UniProt Q13045 and related entries, for which the NP40-soluble protein abundance came out at 1.005 ± 0.0082.

As to “UniProt Q13428-3|Q13428-7|E7ETY2 and related entries”, the NP40-soluble protein abundance is 1.11 ± 0.056.

For the target TMEM115 (UniProt Q12893), the NP40-soluble protein abundance is 0.973 ± 0.022.

Take UniProt Q14693 and related entries: the NP40-soluble protein abundance stood at 0.991 ± 0.029.

On to DAG1 (UniProt Q14118), for which the NP40-soluble protein abundance came to 1.019 ± 0.0087.

As to UniProt Q13029 and related entries, the NP40-soluble protein abundance was 0.997 ± 0.025.

As for SREBF2 (UniProt Q12772), the NP40-soluble protein abundance was found to be 0.988 ± 0.02.

Regarding UniProt Q15084 and related entries, the NP40-soluble protein abundance turned out to be 0.949 ± 0.019.

UniProt Q13884 and related entries: the NP40-soluble protein abundance came to 0.9984 ± 0.004.

On to TFDP2 (UniProt Q14188), for which the NP40-soluble protein abundance was found to be 1 ± 0.043.

As for UniProt Q13308 and related entries, the NP40-soluble protein abundance came to 0.994 ± 0.014.

As to UniProt Q13459 and related entries, the NP40-soluble protein abundance was 1.04 ± 0.068.

For the target BLMH (UniProt Q13867), the NP40-soluble protein abundance is 0.943 ± 0.046.

For PDAP1 (UniProt Q13442), the NP40-soluble protein abundance worked out at 1.07 ± 0.072.

On to UniProt Q13740 and related entries, for which the NP40-soluble protein abundance was 1.02 ± 0.03.

PPP1R8 (UniProt Q12972): the NP40-soluble protein abundance is 1.04 ± 0.03.

As to UniProt Q15046, the NP40-soluble protein abundance worked out at 0.936 ± 0.07.

On to BYSL (UniProt Q13895), for which the NP40-soluble protein abundance was determined as 0.998 ± 0.01.

In the case of UniProt Q12769 and related entries, the NP40-soluble protein abundance stood at 1 ± 0.024.

Consider UniProt Q15067-2|Q15067, for which the NP40-soluble protein abundance was found to be 1 ± 0.034.

UniProt Q13825 and related entries: the NP40-soluble protein abundance came to 0.995 ± 0.028.

UniProt Q13310-3|Q13310: the NP40-soluble protein abundance was found to be 1.02 ± 0.045.

Turning to EIF2B1 (UniProt Q14232), the NP40-soluble protein abundance is 0.987 ± 0.022.

Consider UniProt Q14865, for which the NP40-soluble protein abundance came to 1.03 ± 0.066.

On to COTL1 (UniProt Q14019), for which the NP40-soluble protein abundance worked out at 0.985 ± 0.024.

For DDX10 (UniProt Q13206), the NP40-soluble protein abundance is 0.995 ± 0.02.

For UniProt Q13627 and related entries, the NP40-soluble protein abundance was 1.01 ± 0.0097.

Still in this test, the particulars now being: concentration: 2mM.
In the case of UniProt Q13164, the NP40-soluble protein abundance amounted to 1 ± 0.017.

MAD2L1 (UniProt Q13257): the NP40-soluble protein abundance is 0.886 ± 0.053.

Consider PIN1 (UniProt Q13526), for which the NP40-soluble protein abundance amounted to 1.11 ± 0.069.

As for NNT (UniProt Q13423), the NP40-soluble protein abundance was determined as 0.978 ± 0.037.

With EXOSC2 (UniProt Q13868), the NP40-soluble protein abundance was determined as 0.966 ± 0.06.

Turning to GINS1 (UniProt Q14691), the NP40-soluble protein abundance stood at 0.9955 ± 0.0052.

With UniProt Q08J23 and related entries, the NP40-soluble protein abundance was 0.999 ± 0.05.

Turning to UniProt Q13951 and related entries, the NP40-soluble protein abundance came out at 1.13 ± 0.15.

Take UniProt Q13303 and related entries: the NP40-soluble protein abundance came out at 0.894 ± 0.051.

Take UniProt Q13045 and related entries: the NP40-soluble protein abundance is 0.958 ± 0.041.

As for “UniProt Q13428-3|Q13428-7|E7ETY2 and related entries”, the NP40-soluble protein abundance turned out to be 1.26 ± 0.077.

For the target TMEM115 (UniProt Q12893), the NP40-soluble protein abundance worked out at 1.01 ± 0.038.

As for UniProt Q14693 and related entries, the NP40-soluble protein abundance stood at 1 ± 0.053.

On to DAG1 (UniProt Q14118), for which the NP40-soluble protein abundance worked out at 1.06 ± 0.059.

UniProt Q13029 and related entries: the NP40-soluble protein abundance was 1.05 ± 0.07.

For SREBF2 (UniProt Q12772), the NP40-soluble protein abundance stood at 1.01 ± 0.031.

Consider UniProt Q15084 and related entries, for which the NP40-soluble protein abundance was 0.989 ± 0.021.

In the case of UniProt Q13884 and related entries, the NP40-soluble protein abundance was determined as 1.042 ± 0.002.

Take TFDP2 (UniProt Q14188): the NP40-soluble protein abundance was determined as 1.02 ± 0.046.

Regarding UniProt Q13308 and related entries, the NP40-soluble protein abundance is 1.05 ± 0.048.

Turning to UniProt Q13459 and related entries, the NP40-soluble protein abundance came out at 1.06 ± 0.1.

BLMH (UniProt Q13867): the NP40-soluble protein abundance came to 0.869 ± 0.11.

As to PDAP1 (UniProt Q13442), the NP40-soluble protein abundance came to 1.17 ± 0.026.

As to UniProt Q13740 and related entries, the NP40-soluble protein abundance is 1.08 ± 0.07.

PPP1R8 (UniProt Q12972): the NP40-soluble protein abundance was 1.04 ± 0.019.

Regarding UniProt Q15046, the NP40-soluble protein abundance came out at 0.891 ± 0.14.

As for BYSL (UniProt Q13895), the NP40-soluble protein abundance turned out to be 0.978 ± 0.033.

Consider UniProt Q12769 and related entries, for which the NP40-soluble protein abundance turned out to be 0.9518 ± 0.0046.

Take UniProt Q15067-2|Q15067: the NP40-soluble protein abundance came to 0.936 ± 0.074.

Regarding UniProt Q13825 and related entries, the NP40-soluble protein abundance worked out at 1.02 ± 0.025.

Regarding UniProt Q13310-3|Q13310, the NP40-soluble protein abundance came out at 1 ± 0.021.

As for EIF2B1 (UniProt Q14232), the NP40-soluble protein abundance came to 0.966 ± 0.024.

Regarding UniProt Q14865, the NP40-soluble protein abundance amounted to 1.01 ± 0.051.

For the target COTL1 (UniProt Q14019), the NP40-soluble protein abundance worked out at 1.05 ± 0.096.

Consider DDX10 (UniProt Q13206), for which the NP40-soluble protein abundance worked out at 1 ± 0.016.

For UniProt Q13627 and related entries, the NP40-soluble protein abundance turned out to be 0.9868 ± 0.0037.

The test is the same for the next values; noted with them: concentration: 4mM.
As to UniProt Q13164, the NP40-soluble protein abundance was 1.03 ± 0.024.

Regarding MAD2L1 (UniProt Q13257), the NP40-soluble protein abundance is 0.953 ± 0.04.

Take PIN1 (UniProt Q13526): the NP40-soluble protein abundance was determined as 1.05 ± 0.022.

For the target NNT (UniProt Q13423), the NP40-soluble protein abundance was 0.964 ± 0.019.

In the case of EXOSC2 (UniProt Q13868), the NP40-soluble protein abundance turned out to be 1.04 ± 0.045.

For GINS1 (UniProt Q14691), the NP40-soluble protein abundance amounted to 1.01 ± 0.011.

Take UniProt Q08J23 and related entries: the NP40-soluble protein abundance was found to be 1.08 ± 0.027.

Turning to UniProt Q13951 and related entries, the NP40-soluble protein abundance was found to be 1.06 ± 0.053.

Consider UniProt Q13303 and related entries, for which the NP40-soluble protein abundance worked out at 0.969 ± 0.062.

Regarding UniProt Q13045 and related entries, the NP40-soluble protein abundance came out at 0.989 ± 0.026.

Regarding “UniProt Q13428-3|Q13428-7|E7ETY2 and related entries”, the NP40-soluble protein abundance worked out at 1.2 ± 0.042.

Regarding TMEM115 (UniProt Q12893), the NP40-soluble protein abundance turned out to be 0.966 ± 0.045.

On to UniProt Q14693 and related entries, for which the NP40-soluble protein abundance was 0.99 ± 0.03.

Consider DAG1 (UniProt Q14118), for which the NP40-soluble protein abundance amounted to 0.99 ± 0.029.

Regarding UniProt Q13029 and related entries, the NP40-soluble protein abundance was 1.03 ± 0.019.

SREBF2 (UniProt Q12772): the NP40-soluble protein abundance was 0.969 ± 0.024.

With UniProt Q15084 and related entries, the NP40-soluble protein abundance is 0.9386 ± 0.0066.

As for UniProt Q13884 and related entries, the NP40-soluble protein abundance came out at 1.02 ± 0.021.

With TFDP2 (UniProt Q14188), the NP40-soluble protein abundance was 1.01 ± 0.051.

As for UniProt Q13308 and related entries, the NP40-soluble protein abundance was 1.01 ± 0.035.

As for UniProt Q13459 and related entries, the NP40-soluble protein abundance amounted to 1.05 ± 0.087.

Take BLMH (UniProt Q13867): the NP40-soluble protein abundance stood at 0.915 ± 0.043.

Consider PDAP1 (UniProt Q13442), for which the NP40-soluble protein abundance is 1.13 ± 0.048.

UniProt Q13740 and related entries: the NP40-soluble protein abundance turned out to be 1.01 ± 0.048.

Turning to PPP1R8 (UniProt Q12972), the NP40-soluble protein abundance amounted to 1.02 ± 0.053.

On to UniProt Q15046, for which the NP40-soluble protein abundance is 0.914 ± 0.11.

Turning to BYSL (UniProt Q13895), the NP40-soluble protein abundance came to 0.999 ± 0.047.

As to UniProt Q12769 and related entries, the NP40-soluble protein abundance was found to be 0.9433 ± 0.006.

Take UniProt Q15067-2|Q15067: the NP40-soluble protein abundance was 1.01 ± 0.035.

As to UniProt Q13825 and related entries, the NP40-soluble protein abundance turned out to be 1.04 ± 0.044.

On to UniProt Q13310-3|Q13310, for which the NP40-soluble protein abundance is 1.02 ± 0.066.

Turning to EIF2B1 (UniProt Q14232), the NP40-soluble protein abundance was 0.995 ± 0.048.

For the target UniProt Q14865, the NP40-soluble protein abundance turned out to be 1 ± 0.06.

With COTL1 (UniProt Q14019), the NP40-soluble protein abundance amounted to 0.943 ± 0.046.

Take DDX10 (UniProt Q13206): the NP40-soluble protein abundance amounted to 0.984 ± 0.029.

Take UniProt Q13627 and related entries: the NP40-soluble protein abundance was determined as 0.985 ± 0.025.
